Results taken from article doi:10.1101/2025.09.05.674523 (bioRxiv, 2025).
No constants are given. Whether binding was seen depends on the method and setting. Binding calls can cover weak binding; strength is not graded here.

Target: T1, full-length recombinant mouse EPPIN (mEPPIN; L24-T134) (mouse) (UniProt Q9DA01)
T1 sequence: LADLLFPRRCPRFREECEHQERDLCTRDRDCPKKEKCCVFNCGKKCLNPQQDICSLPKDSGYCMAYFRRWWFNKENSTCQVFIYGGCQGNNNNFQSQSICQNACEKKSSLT
Test: AlphaScreen or HTRF

## full-length recombinant mouse SEMG1 (mSEMG1; Q32-G375)
  binding: binds
